Test results taken from PubChem BioAssay AID2685 (National Center for Advancing Translational Sciences (NCATS), 2010).
Some of the results follow. The main result of the screen is listed elsewhere. These columns were measured beside it and carry no call. Most of these compounds were active or inconclusive in the main read-out, so they are no random draw. Potencies come from curve fits of mixed quality, noted in brackets.

Assay: qHTS Assay for Lipid Storage Modulators in Drosophila S3 Cells;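 for cell number change: cells counted by Cell Tracker Red CMTPX staining in the red channel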
Conditions: BODIPY lipid droplet fluorescence, 18-24 h; for cell number change: measured here: cell count max response, cells fed with added oleic acid
How it was run: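 Drosophila S3 cells got compounds at several concentrations plus oleic acid (400 uM solution). Laser-scanning cytometry with 488 nm excitation read lipid droplets at 500-530 nm and cells at 575-640 nm. Percent activity was relative to 20 uM Triacsin C.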

[1] = measured here: lipid fluorescence (Fed channel) AC50, cells fed with added oleic acid
[2] = measured here: cell number channel AC50, cells fed with added oleic acid

Compound | cell number change | AC50 [1] | AC50 [2]
Cc1ccc(OCC(=O)Nc2ccc3c(c2)C(=O)NC3=O)c(C)c1 | 25.9% | 6.51 µM [rising, single point] | 
CC1Sc2ccc(S(=O)(=O)N3CCC(C(=O)Nc4cccc(Cl)c4)CC3)cc2NC1=O (stereo not given) | -15.1% |  | 
Cc1ccc(N(Cc2cc3ccccc3[nH]c2=O)C(=O)c2cccs2)cc1C | 6.71% | 0.146 µM [rising, partial curve, poor fit] | 
COc1cccc(OCC(O)CN(CCO)Cc2ccccc2)c1 (stereo not given) | 1.98% | 6.51 µM [falling, single point] | 
Cc1cc(=O)[nH]c(SCC(N)=O)c1C#N |  | 18.4 µM [falling, partial curve] | 
CCOc1cc(/C=C2\CN(C)C/C(=C\c3ccc(O)c(OCC)c3)C2=O)ccc1O | -46.9% | 16.4 µM [falling, partial curve] | 18.4 µM [falling, single point]
Cc1ccc(Nc2nc(-c3sc(N)nc3C)cs2)cc1 | -74.3% |  | 14.6 µM [falling, partial curve]
O=C(CNC(=O)c1sc2ccccc2c1Cl)OCc1ccccc1 | 0.647% | 0.58 µM [falling, full curve, poor fit] | 
O=c1[nH]cnc2c1C(c1ccccc1)c1c(nc[nH]c1=O)O2 | 5.56% |  | 
COc1ccc(C(C#N)c2cnccn2)cc1OC (stereo not given) | 1.19% |  | 
CC(C)N(C)S(=O)(=O)c1ccc(NC(=O)C2=COCCO2)cc1 | -16% |  | 
CN(Cc1ccccc1)c1ccc(S(=O)(=O)N2CCOCC2)cn1 | 5.97% |  | 
Cc1cc(C)c(S(=O)(=O)N2CCCC(C(=O)NCc3cccnc3)C2)c(C)c1 (stereo not given) | -16.9% | 6.51 µM [rising, single point] | 
CC(C)(C)CN1CCN(CC#Cc2ccccc2)CC1CCO (stereo not given) | 0.275% | 6.51 µM [falling, single point] | 
CCCC(=O)Nc1ccc(C(=O)Nc2cc(C(F)(F)F)ccc2Cl)cc1 | -14.1% | 29.1 µM [falling, single point] | 
Cc1ccc(Cl)cc1Nc1nc(-c2cccnc2)cs1 | -25.2% | 3.26 µM [rising, single point] | 
COc1ccc(S(=O)(=O)N2CCCCCC2)cc1NC(=O)CN1C(=O)NC(C)(c2ccccc2)C1=O (stereo not given) |  | 16.4 µM [falling, partial curve, poor fit] | 0.731 µM [falling, partial curve, poor fit]
Cc1ccc(O)c(Nc2ncnc3ccc([N+](=O)[O-])cc23)c1 | -47.3% |  | 9.2 µM [falling, partial curve, poor fit]
CC(OC(=O)Cn1[nH]c(=O)c2ccccc2c1=O)C(=O)Nc1ccc(F)cc1 (stereo not given) |  |  | 7.31 µM [rising, single point]
CN(C)CCNc1nc(-c2ccco2)c2c(c1C#N)CC(C)(C)OC2 | -50.8% | 29.1 µM [falling, single point] | 5.17 µM [falling, full curve]

Pulled one by one from the list above (2):
Compound | cell number change | AC50 [1] | AC50 [2]
Cc1ccc(Cl)cc1Nc1nc(-c2cccnc2)cs1 | -25.2% | 3.26 µM [rising, single point] | 
COc1ccc(S(=O)(=O)N2CCCCCC2)cc1NC(=O)CN1C(=O)NC(C)(c2ccccc2)C1=O (stereo not given) |  | 16.4 µM [falling, partial curve, poor fit] | 0.731 µM [falling, partial curve, poor fit]

More records:

Compound | cell number change | AC50 [1] | AC50 [2]
O=C(NCCCN1CCOCC1)c1sc2cc([N+](=O)[O-])ccc2c1Cl | -16.4% |  | 
Cn1nc(-c2ccccc2)c(N2CCCCC2)cc1=O | -18.4% |  | 
COc1ccc(OC)c(/C=N/NC(=O)c2ccc(Cn3cc([N+](=O)[O-])cn3)o2)c1 | -42.5% | 29.1 µM [falling, single point] | 32.6 µM [falling, single point]
COc1cccc(CNC(=O)c2cccnc2Sc2ccc(Cl)cc2)c1 | 12.6% | 14.6 µM [rising, partial curve] | 6.51 µM [rising, single point]
COCC(C)NC(=O)c1ccc2nc(-c3ccccc3)c(-c3ccccc3)nc2c1 (stereo not given) | -24.3% |  | 
CC(=O)N1CCN(CC(C)(C)NS(=O)(=O)c2ccc(C)cc2)CC1 | -4.62% | 0.146 µM [rising, full curve, poor fit] | 
O=C(Nc1cccc(Cl)c1)C1C2C=CC3(O2)C1C(=O)N(CCN1CCCCC1)C3C(=O)NC1CCCCC1 (stereo not given) | 8.06% | 25.9 µM [falling, partial curve, poor fit] | 
Cc1ccc(S(=O)(=O)/N=C(/NC(=S)Nc2cccc(C)c2)c2ccccc2)cc1 | 91.1% |  | 29.1 µM [rising, single point]
COc1ccc(CN2CCC(Oc3ccc(C(=O)N4CCCCC4)cc3)CC2)cc1C | -1.98% | 29.1 µM [falling, single point] | 
Cc1oncc1C(=O)N1CCCC(CO)(Cc2ccc(F)cc2F)C1 (stereo not given) | -9.48% |  | 
Cc1ccc(SCc2nc(-c3ccncc3)no2)cc1 | 5.69% | 9.2 µM [rising, partial curve, poor fit] | 
CN(C(=O)Cn1nnc(-c2ccccc2)n1)C1CCS(=O)(=O)C1 (stereo not given) | -43.7% | 0.82 µM [falling, full curve] | 0.231 µM [falling, full curve]
COc1ccccc1-n1c(SCC(N)=O)nc2sc3c(c2c1=O)CCC3 | 10.5% |  | 1.16 µM [rising, partial curve, poor fit]
Cc1[nH]c(=O)[nH]c(=O)c1/C=N/NC(=O)[C@@H](N)CC(C)C | 5.68% | 0.116 µM [falling, full curve, poor fit] | 
CN(C(=O)CSc1nnc(-c2cccs2)o1)C1CCS(=O)(=O)C1 (stereo not given) | -25.7% |  | 3.26 µM [falling, full curve, poor fit]
COc1cc(C(C)=O)ccc1OCC(O)CN1CCN(c2ccc(C)cc2C)CC1 (stereo not given) | 39.8% |  | 18.4 µM [rising, single point]
CCc1nnc(NS(=O)(=O)c2ccc(N3C(=O)c4ccc(C(=O)O)cc4C3=O)cc2)s1 | -42.5% | 0.461 µM [falling, full curve] | 1.16 µM [falling, full curve]
CCOc1ncccc1C(=O)NCCCSc1ccccc1 | 6.38% | 32.6 µM [rising, single point] | 
CCc1ccc2[nH]c(=O)c(CN(CCCO)C(=O)NCc3ccccc3)cc2c1 | -7.56% |  | 
C=CCN=C(NC#N)SCC(=O)c1cccc(OC)c1 | 48.8% | 9.2 µM [rising, partial curve] | 29.1 µM [rising, single point]
